Results on 31 molecules are retold here after the supplement of paper PMC12462457.

Counter-ions that a name gives are not always drawn. ± gives the standard deviation of the averaged measurements. Some of the results follow. This data set is noisy: repeats of one test often differ as much as different tests do.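 Imaging of DAPI-stained nuclei was used to count cells; those without phalloidin-stained cytoplasm were treated as dead and excluded. Every well's count was divided by the median of same-plate vehicle wells, then averaged across two replicate plates.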

For the test, the system named is OVCAR8. Nature of the test: cell count relative to DMSO vehicle (fold change); higher = more surviving senescent cells (less killing). The note with it: senescence inducer: cisplatin 10 µM 48 h, then 6 d recovery (CP senescent), exposure time 24 h.

In the case of `O=C1CCC(N2Cc3cc(CNC(=O)C(F)(F)c4ccc(Cl)cc4)ccc3C2=O)C(=O)N1` (configuration not stated) [Cereblon modulator 1], the cell count runs as follows: (compound dose 1 µM) 1.212 ± 0.011; (compound dose 5 µM) 1.13 ± 0.23.
Taken in the same sequence, the figures for `CC1CCC2(OC1)OC1CC3C4CC=C5CC(OC6OC(CO)C(O)C(O)C6OC6OC(C)C(O)C(O)C6O)CCC5(C)C4CCC3(C)C1C2C` (configuration not stated) [Prosapogenin A] were 1.09 ± 0.028 and 0.287 ± 0.16.
In turn, `O=c1cc(-c2ccc(O)c(O)c2)oc2cc(O[C@@H]3O[C@H](CO)[C@@H](O)[C@H](O)[C@H]3O)cc(O)c12` [Cynaroside] displayed a cell count (compound dose 1 µM) of 1.1 ± 0.18 and a cell count (compound dose 5 µM) of 1.28 ± 0.31.
As for `CC1=C(CO)C(=O)O[C@@H]([C@@H](C)[C@H]2CC[C@H]3[C@@H]4C[C@H]5O[C@]56[C@@H](O)C=CC(=O)[C@]6(C)[C@H]4CC[C@]23C)C1` [Withaferin A], the cell count reads like this: (compound dose 1 µM) 0.698 ± 0.17; (compound dose 5 µM) 0.023 ± 0.016.
Taken in the same sequence, the figures for `CC(=O)OC1CC2CCC1(C)C2(C)C` (configuration not stated) [Bornyl acetate] were 0.931 ± 0.11 and 0.783 ± 0.019.
Taken in the same sequence, the figures for `O=C(Nc1cccc(Nc2cc(Nc3cccc(C(F)(F)F)c3)ncn2)c1)C1CC1` were 1.02 ± 0.083 and 1.07 ± 0.06.
In the same order, the values of `CCOC(=O)c1cnn(-c2ccccc2)c1NC(=O)c1cc2nc(-c3ccco3)cc(C(F)(F)Cl)n2n1` [Mycro 3] are 1.16 ± 0.03 and 1.16 ± 0.13.
Regarding `COc1cc(C(N)=O)ccc1NC(=O)[C@@H]1N[C@@H](CC(C)(C)C)[C@@]2(C(=O)Nc3cc(Cl)ccc32)[C@H]1c1cccc(Cl)c1F`, the cell count (compound dose 1 µM) amounted to 0.958 ± 0.16 and the cell count (compound dose 5 µM) was 0.876 ± 0.24.
In the same order, the values of `CC(C)n1nc(-c2cc3cc(O)ccc3[nH]2)c2c(N)ncnc21` [Torkinib (PP242)] are 0.846 ± 0.13 and 0.525 ± 0.11.
In the same order, the values of `O=C(CCCCCCNC(=O)c1cnc(N(c2ccccc2)c2ccccc2)nc1)NO` [Ricolinostat (ACY-1215)] are 0.766 ± 0.042 and 0.355 ± 0.18.
Consider `CC(C)CC(=O)Nc1n[nH]c2c1CN(C(=O)C1CCN(C)CC1)C2(C)C`, for which the cell count is, setting by setting: (compound dose 1 µM) 1.11 ± 0.2; (compound dose 5 µM) 1.12 ± 0.073.
Taken in the same sequence, the figures for `CC(=O)N1c2ccc(-c3ccc(C(=O)O)cc3)cc2[C@H](Nc2ccc(Cl)cc2)C[C@@H]1C` were 0.677 ± 0.16 and 0.756 ± 0.05.
Taken in the same sequence, the figures for `Nc1nc(F)nc2c1ncn2[C@@H]1O[C@H](CO)[C@@H](O)[C@@H]1O` [Fludarabine] were 1.17 ± 0.15 and 1.16 ± 0.18.
In the same order, the values of `Nc1nc(Cl)nc2c1ncn2[C@@H]1O[C@H](CO)[C@@H](O)[C@@H]1F` [Clofarabine] are 0.847 ± 0.17 and 0.712 ± 0.0028.
For the molecule `CN1CC[C@H](c2c(O)cc(O)c3c(=O)cc(-c4ccccc4Cl)oc23)[C@H](O)C1` [Flavopiridol], the cell count by setting is: (compound dose 1 µM) 0.933 ± 0.034; (compound dose 5 µM) 0.699 ± 0.011.
In the case of `COc1cc(/C=C/C(O)=C/C(=O)/C=C/c2ccc(O)cc2)ccc1O` [Demethoxycurcumin], the cell count reads like this: (compound dose 1 µM) 0.993 ± 0.19; (compound dose 5 µM) 0.587 ± 0.061.
Consider `CC(C)[C@H]1C(=O)N[C@@H](CCCNC(=N)N)C(=O)NCC(=O)N[C@@H](CC(=O)O)C(=O)N[C@H](Cc2ccccc2)C(=O)N1C` [Cilengitide], for which the cell count by setting is: (compound dose 1 µM) 0.234 ± 0.023; (compound dose 5 µM) 0.069 ± 0.055.
With `O=C(c1cccc(Cl)c1F)N1CCN(Cc2cccc(Nc3nccs3)n2)CC1`, the cell count (compound dose 1 µM) worked out at 1.18 ± 0.021 and the cell count (compound dose 5 µM) is 0.559 ± 0.039.
Taken in the same sequence, the figures for `COc1cc(-c2coc3cc(O)c(OC)c(O)c3c2=O)cc(O)c1OC` were 0.778 ± 0.047 and 0.709 ± 0.028.
Taken in the same sequence, the figures for `COC1=C(OC)C(=O)C(CCCCCCCCCCO)=C(C)C1=O` were 0.97 ± 0.059 and 0.8205 ± 0.0021.
In the same order, the values of `O=C(Nc1c[nH]nc1-c1nc2ccc(CN3CCOCC3)cc2[nH]1)NC1CC1` are 0.759 ± 0.059 and 0.28 ± 0.079.
Consider `Cc1cccc(NC(=O)Nc2ccc(-c3csc4ncnc(N)c34)cc2)c1`, for which the cell count by setting is: (compound dose 1 µM) 1.333 ± 0.0035; (compound dose 5 µM) 1.16 ± 0.54.
In the same order, the values of `CC(C)C[C@H](NC(=O)[C@@H](COC(C)(C)C)NC(=O)[C@H](Cc1ccc(O)cc1)NC(=O)[C@H](CO)NC(=O)[C@H](Cc1c[nH]c2ccccc12)NC(=O)[C@H](Cc1cnc[nH]1)NC(=O)[C@@H]1CCC(=O)N1)C(=O)N[C@@H](CCCNC(=N)N)C(=O)N1CCC[C@H]1C(=O)NNC(N)=O` [Goserelin (acetate)] are 0.865 ± 0.15 and 0.861 ± 0.055.
Taken in the same sequence, the figures for `C/C=C1/[C@H](O[C@@H]2O[C@H](CO)[C@@H](O)[C@H](O)[C@H]2O)OC=C(C(=O)OC)[C@H]1CC(=O)OCCc1ccc(O)c(O)c1` [Oleuropein] were 0.904 ± 0.26 and 0.837 ± 0.21.
The molecule `COc1ccc(C(=O)CC2(O)C(=O)Nc3c(Cl)ccc(Cl)c32)cc1` (configuration not stated) yielded a cell count (compound dose 1 µM) of 0.812 ± 0.095 and a cell count (compound dose 5 µM) of 0.634 ± 0.098.
In the same order, the values of `CC(C)=CC(O)C/C(C)=C/COc1c2ccoc2cc2oc(=O)ccc12` (configuration not stated) [Notopterol] are 1.03 ± 0.072 and 1.09 ± 0.016.
Taken in the same sequence, the figures for `CC(C)(C)Cn1c(N)nc2ccc(-c3[nH]c(C(C)(C)C)nc3-c3ccc(F)cc3)nc21` were 1.29 ± 0.032 and 1.05 ± 0.17.
Take `CCCCC[C@H](O)/C=C/[C@@H]1[C@@H](C/C=C\CCCC(=O)O)[C@@H](O)C[C@H]1O` [Dinoprost (tromethamine salt)]: the cell count (compound dose 1 µM) is 1.12 ± 0.029 and the cell count (compound dose 5 µM) stood at 0.961 ± 0.43.
Consider `CC(C)N(C(=O)c1cc(F)ccc1Oc1cncnc1N1CC2(CCN(CC3CCC(NS(C)(=O)=O)CC3)CC2)C1)C(C)C` (configuration not stated), for which the cell count reads like this: (compound dose 1 µM) 1.21 ± 0.17; (compound dose 5 µM) 1.11 ± 0.12.
Taken in the same sequence, the figures for `CCCCCCCCCCCCCCCCCCOP(=O)([O-])OC1CC[N+](C)(C)CC1` [Perifosine (KRX-0401)] were 0.986 ± 0.0014 and 1.18 ± 0.2.
The molecule `O=C(Nc1ccc(OC(F)(F)F)cc1)c1sccc1NCc1ccnc2ccccc12` registered a cell count (compound dose 1 µM) of 1.05 ± 0.035 and a cell count (compound dose 5 µM) of 0.887 ± 0.21.
